Measured values from patent US20170145086A1.
Results are given in words; binding and its absence hold for the method and conditions named. Some entries that bind do so weakly or less than the wild type.

By UniProt entry, the sequences of proteins in these tests, tags left out. Where a name states a change or a piece, a line headed by the entry shows the natural chain unless it says otherwise.
UniProt O75888: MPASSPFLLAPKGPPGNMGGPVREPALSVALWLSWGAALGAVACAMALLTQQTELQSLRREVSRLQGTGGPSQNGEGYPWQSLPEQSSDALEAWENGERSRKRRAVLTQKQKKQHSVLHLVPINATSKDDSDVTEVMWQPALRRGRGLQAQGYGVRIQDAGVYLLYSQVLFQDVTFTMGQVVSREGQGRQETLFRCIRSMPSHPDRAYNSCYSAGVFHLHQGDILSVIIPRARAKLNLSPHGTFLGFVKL

Key:
[1] = target: FLAG-tagged human APRIL (wild type and site-directed variants, Example 7) (human) (UniProt O75888); assay: ELISA, FLAG-APRIL captured with anti-FLAG antibody
[2] = target: HA-GCN4 hAPRIL (amino acid residues 105-250) (human) (UniProt O75888); assay: indirect ELISA on human APRIL
[3] = target: HA-GCN4 hAPRIL (amino acid residues 105-250) (human) (UniProt O75888); assay: blocking ELISA; blocked: human APRIL binding to TACI-Fc
[4] = target: HA-GCN4 hAPRIL (amino acid residues 105-250) (human) (UniProt O75888); assay: blocking ELISA; blocked: human APRIL binding to BCMA-Fc
[5] = target: HA-GCN4 hAPRIL (amino acid residues 105-250) (human) (UniProt O75888); assay: blocking ELISA; blocked: human APRIL binding to human TACI-Fc
[6] = target: HA-GCN4 hAPRIL (amino acid residues 105-250) (human) (UniProt O75888); assay: blocking ELISA; blocked: human APRIL binding to human BCMA-Fc

Measured: binding

B1: monoclonal antibody 3833 (antibody, V domains shown)
VH: QVQLQQSGAELVRPGTSVKMSCKAAGYTFTNYWIGWVKQRPGHGLEWIGDIYPGGIGGGYTKYNEKFKGKATLTADTSSSTAYMQLGSLTSEDSAIYFCSRSETGRAMDYWGQGTSVTVSS
VL: DIQMTQSPSSLSASLGGKVTITCKASQDINKYIAWYQHKPGKGPRLLIHYTSTLKPGIPSRFSGSGSGRDYSFSISDLEPEDIATYYCLQYDNLNTFGGGTKLEIK
binds: [1]

B2: monoclonal antibody 2419-0205 (antibody, IgG2, V domains shown)
VH: QVQLVQSGAEVKKPGSSVKVSCKASGYTFTDYTIHWVRQAPGQGLEWMGWIYPLRGSINYAQKFQGRVTITADKSTSTAYMELSSLRSEDTAVYFCARHGAYYSNAFDYWGQGTLVTVSS
VL: EIVMTQSPATLSVSPGERATLSCRASESVDNDGIRFLHWYQQKPGQAPRLLIYRASNRETGIPARFSGSGSGTEFTLTISSLQSEDFAVYYCQQSNKDPYTFGGGTKVEIK
not listed: [1]
binds: all other assays above
